In paper PMC6503876:
No constants are given. Whether binding was seen depends on the method and setting. In cells and extracts the contact can be indirect. Binding can be weak; no strength is given.

Target: perilipin-5 (Pelodiscus sinensis (endogenous in liver))
Assay: co-IP; liver homogenates of hibernating and non-hibernating turtles lysed in Co-IP lysis buffer on ice; immunoprecipitating antibodies and protein A/G beads, 4 °C overnight; beads washed with lysis buffer 3-4 times; SDS-PAGE and western blotting

B1: adipose triglyceride lipase (enzyme, UniProt K7FV84 1-484)
chain: AMFPLDAPWSISFAGCGFLGVYHIENCCCLQEHAPFLVANAKTIYGASAGALTATALVTGACLGEAGANIIQVSKEARKRFLGPLHPSFNLVKIIRTCLYKTLPDNGHEVARGRLGISLTRVSDGENVILSEFNSKEELIQACVCSTFIPVYCGLIPPSLQGVRYVDGGISDNLPQYELKNTITVSPFSGESDICPRDSSTNIHELRVTNTSIQFNLRNLYRLSKALFPPEPQVLRDMCKQGYRDALHFLKKNGLLHRPEPSRPLLAIENSSGARDPEEEEKSAEDQLRENAALAAVEDHIFEHLPPRLNQALLEACTERRGLLVGITNLLPVRLASAMMIPYTLPVESAVSFTVRLLEWLPDVPEDIRWMKEQTSKVCNYLMREAKKKLGSHLSARLYYHFELRRTQSLPIPLASTYGEALPQWVRSNLSLTDVKTKWEEYQRQLMLGLFCINVDMQASIFPSDGLQMRLSPADRVQESLPLF
For B1, the binding was “binds”.
